For 39 compounds, cell number change and AC50 results are on record in PubChem BioAssay AID2685 (National Center for Advancing Translational Sciences (NCATS), 2010).

The list shows a part of the results. Shown are side measurements of this screen, not its main read-out; they come without a call. Most of these compounds were active or inconclusive in the main read-out, so they are no random draw. Words in brackets tell the shape of the fitted curve; partial curves, single points and poor fits give uncertain potencies.

This assay can be described thus: qHTS Assay for Lipid Storage Modulators in Drosophila S3 Cells.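 For cell number change: cells counted by Cell Tracker Red CMTPX staining in the red channel.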 The conditions noted are these: BODIPY lipid droplet fluorescence, 18-24 h; for cell number change: measured here: cell count max response, cells fed with added oleic acid. In outline: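 Drosophila S3 cells loaded with oleic acid (400 uM, as added) and compounds at several concentrations; lipid droplets imaged by 488-nm laser-scanning cytometry, 500–530 nm intensity and object ratio to cell channel. Percent activity normalized to 20 uM Triacsin C.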
For orientation: In qHTS, concentration-response curves come from the screen itself.

Setting [1] is: measured here: lipid fluorescence (Fed channel) AC50, cells fed with added oleic acid.
Setting [2] is: measured here: cell number channel AC50, cells fed with added oleic acid.

Take `COCc1cc(C)nc(SCC(=O)Nc2nc(C)cs2)c1C#N`: the cell number change is -9.91%. For the same compound, the AC50 under setting [1] was 6.51 µM [falling, partial curve, poor fit].
On to `O=C(CN1CCCC1)N1c2ccccc2Sc2ccccc21`, for which the cell number change was 32.7%. Moreover, the AC50 under setting [2] is 16.4 µM [rising, single point]. In addition, the AC50 under setting [1] is 0.0103 µM [falling, full curve, poor fit].
As to `C=CCOC(=O)C(C#N)c1nc2ccccc2nc1N1CCN(c2ccccc2OC)CC1` (centres undefined), the cell number change was -3.23%. Moreover, the concentration at half-maximal activity (AC50) under setting [1] is 0.651 µM [rising, partial curve].
Turning to `Cc1cc2occ(CC(=O)NNC(=O)c3ccccc3)c2cc1C`, the cell number change came to 14.2%. The AC50 under setting [1] is 0.411 µM [rising, full curve].
`Cc1ccc(NS(=O)(=O)c2ccc(C)c(NC(=O)COc3ccc4ccccc4c3)c2)c(C)c1`: the cell number change worked out at 81.2%. Moreover, the AC50 under setting [1] was 29.1 µM [falling, single point].
For `C=C(C)COc1ccc(-c2n[nH]c(C)c2-c2ccc(Br)cc2)c(O)c1`, the cell number change is -63.5%. For the same compound, the AC50 under setting [2] was 32.6 µM [falling, single point]. For the same compound, under setting [1], the AC50 was 32.6 µM [falling, single point].
On to `Cc1ccc(C)c(N2CCN(C3CCCCC3NS(=O)(=O)c3ccccc3)CC2)c1` (centres undefined), for which the cell number change is 30.9%. In addition, the AC50 under setting [2] is 32.6 µM [rising, single point]. The AC50 under setting [1] is 25.9 µM [rising, partial curve].
For the compound `O=C(CCCOc1ccc(Cl)cc1)NCCc1ccccc1`, the cell number change came to 21.6%. Under setting [1], the AC50 is 0.291 µM [rising, single point].
Take `CCN1CCN(C(=O)N[C@@H](C(=O)N[C@@H]2C(=O)N3[C@@H]2SC(C)(C)[C@@H]3C(=O)O)c2ccccc2)C(=O)C1=O`: the cell number change was -1.55%. The AC50 under setting [2] is 0.0731 µM [rising, full curve, poor fit].
`CN1CCN(S(=O)(=O)c2ccc([N+](=O)[O-])cc2)CC1`: the cell number change was found to be 17.9%. In addition, the AC50 under setting [2] was 0.103 µM [rising, full curve, poor fit].
For `COc1ccc(Nc2nnc(SCC(=O)N3CCCC3)s2)cc1`, the AC50 reads like this: under setting [2], 1.84 µM [rising, partial curve]; under setting [1], 2.06 µM [rising, full curve].
With `CCOc1ccc(-n2c(SCC(N)=O)nc3c([nH]c4ccccc43)c2=O)cc1`, the cell number change amounted to 12.5%.
Same read-out and setting: the same measure for `COc1ccc(NC(=O)CSc2nc(N)c(NC(=O)c3cccs3)c(=O)[nH]2)cc1`: -7.21%.
For the compound `COc1nnc(-c2ccc(N3CCOCC3)c(NC(=O)c3ccc(C)cc3)c2)c2ccccc12`, the AC50 under setting [1] was 6.51 µM [falling, single point].
With `CCCCOc1ccc(C(=O)CCN2CCOCC2)cc1`, the cell number change was -169%. For the same compound, under setting [2], the AC50 was 23.1 µM [falling, single point]. The AC50 under setting [1] is 29.1 µM [falling, single point].
`O=C(O)[C@H](Cc1ccccc1)NC(=O)N1CCOCC1`: the cell number change was -5.45%. The AC50 under setting [1] was 0.58 µM [falling, partial curve, poor fit].
With `Cc1ccsc1/C=C(\C#N)C(=O)NCc1cccnc1`, the cell number change was 14.3%. The AC50 under setting [1] is 2.59 µM [rising, partial curve, poor fit].
For `O=C(OCC(=O)N1CCCCC1)c1n[nH]c(=O)c2ccccc12`, the cell number change was -19.7%.
In the case of `CCCCN1c2cc(C)c(O)cc2C(C(=O)OCC)C1C` (centres undefined), the cell number change amounted to 11.2%. The AC50 under setting [1] was 4.61 µM [falling, single point].
For `Cc1ccc2nc(-c3ccc(O)cc3)c(Nc3ccc4c(c3)OCCO4)n2c1`, the cell number change was found to be 15.2%. Under setting [1], the AC50 is 0.517 µM [rising, full curve, poor fit].
As to `Cc1cc(NS(=O)(=O)c2ccc(NC(=O)NC3CCCCC3)cc2)no1`, the AC50 under setting [2] is 0.651 µM [rising, partial curve].
With `Cc1c(C(=O)Nc2nnc(C3CC3)s2)oc2ccccc12`, the cell number change is 9.24%. The AC50 under setting [2] is 5.17 µM [falling, single point]. For the same compound, the AC50 under setting [1] is 0.00461 µM [rising, full curve, poor fit].
Consider `Cc1cccc(C=Nc2ccccc2C(N)=O)c1`, for which the cell number change was -55.7%. Also, the AC50 under setting [2] is 29.1 µM [falling, single point].
`CCOC(=O)c1sc(=S)n(CC)c1NC(=O)CC`: the cell number change is -4.08%. For the same compound, the AC50 under setting [2] is 6.51 µM [falling, single point].
`COc1ccc(CCNC(=O)C(C)c2ccc([N+](=O)[O-])cc2)cc1` (centres undefined): the cell number change is 66.2%. The AC50 under setting [2] was 29.1 µM [rising, single point]. Moreover, the AC50 under setting [1] is 20.6 µM [rising, single point].
In the case of `Cn1c(CNC(=O)c2ccco2)nnc1SCC(=O)Nc1cccc(F)c1`, the cell number change stood at 25.3%.
On the same count and under the same terms, the same measure for `CCNc1oc(-c2ccc(OC)cc2)nc1S(=O)(=O)c1ccc(Br)cc1`: 34.6%.
For the compound `O=C1c2ccccc2C(O)N1c1ccc(Cl)cc1` (centres undefined), the cell number change turned out to be 3.69%. Also, the AC50 under setting [1] was 0.58 µM [rising, full curve, poor fit].
`CCOC(=O)c1c(NC(C)=O)sc2c1CCC(C=O)=C2Sc1ccccc1`: the cell number change was -18.2%. In addition, the AC50 under setting [2] is 2.31 µM [rising, partial curve, poor fit]. The AC50 under setting [1] is 3.66 µM [rising, partial curve].
For `COc1ccc(-c2nc(-c3cccs3)c(-c3cccs3)[nH]2)cc1OC`, the AC50 is 0.82 µM [rising, full curve] under setting [2] and 1.46 µM [rising, partial curve] under setting [1].
Take `COc1ccccc1N1CCN(C(=O)c2cn(-c3ccccc3)nc2-c2cccnc2)CC1`: the cell number change is -8.86%.
As for `C/C(=N/NC(=O)CNC(=O)c1ccco1)c1ccc(Cl)cc1`, the cell number change is -8.66%. Besides, under setting [1], the AC50 was 0.13 µM [falling, full curve, poor fit].
In the case of `OCCC1CN(Cc2ccc(-c3ccco3)cc2)CCN1Cc1ccsc1` (centres undefined), the cell number change was -0.748%.
Take `CC1COc2ccccc2N1C(=O)c1cccnc1Cl` (centres undefined): the cell number change was determined as 14.6%. Moreover, under setting [1], the AC50 is 0.411 µM [rising, full curve, poor fit].
Consider `O=C(Cc1cccs1)N/N=C/C=C/c1ccco1`, for which the cell number change is 0.559%. Also, the AC50 under setting [1] was 32.6 µM [rising, single point].
Consider `N#CCSc1nc(N)c(C#N)c(C2CCCCC2)c1C#N`, for which the cell number change is 18.7%. Under setting [1], the AC50 is 20.6 µM [rising, partial curve, poor fit].
Regarding `CC1CCCC(NC(=O)c2cccc(N3CCCC3=O)c2)C1C` (centres undefined), the cell number change is 18.7%.
On the same count and under the same terms, for `C=CCn1c(SCC(=O)N(CC)C2CCS(=O)(=O)C2)nc2cc(C(=O)O)ccc2c1=O` (centres undefined) the value was 22.8%.
Regarding `COCCNC(=O)C(=O)Nc1cccc(Br)c1`, the cell number change stood at 30%. Under setting [1], the AC50 was 20.6 µM [falling, partial curve].

For orientation: AC50 means the concentration at which the activity in the assay is half-maximal. A high value points to weaker potency.
